Assay results from PubChem BioAssay AID540276 (National Center for Advancing Translational Sciences (NCATS), 2011).
Screen size: about 300,000 compounds; about 5,400 (1.8%) were called active. The inconclusive results got no clear call from the source; some entries with a clear call stand among them for comparison. The call rests on the fitted dose curve; tested in HEK293 cells. Where the call is inconclusive, the potency comes from a doubtful curve fit.

Test: qHTS for inhibitors of binding or entry into cells for Marburg Virus
Details: Marburg virus pseudotyped entry inhibition, cell reporter; activity change, negative = inhibition: at 37.8 µM (top of the series) unless noted
On the % scale 0 is the no-effect control and ±100 the full control effect; potency means the concentration at half of the fitted maximal effect.

SMILES | Potency | activity change, negative = inhibition
CC(C)c1nnc(SCC(=O)NC2CCCCC2)n1C | inconclusive: 0.891 µM [inhibitor, partial curve, poor fit] | 
COc1ccc(N2CCN(C(=O)CSc3nnc4ncccn34)CC2)cc1 | inconclusive: 0.259 µM [inhibitor, full curve, poor fit] | 
Fc1c(F)c(F)c(/C=N/NC(=S)Nc2cccnc2)c(F)c1F | inconclusive: 14.1 µM [inhibitor, partial curve, poor fit] | 
O=C(C1CCN(Cc2ccccc2)CC1)N1CCCC1 | inconclusive: 1.26 µM [activator, full curve, poor fit] | 
CC1CN(CCCCOc2ccc(Cl)c3ccccc23)CC(C)O1 (stereo unspecified) | inconclusive: 7.08 µM [inhibitor, partial curve, poor fit] | 
CC1CN(c2nc(-c3ccc(Br)cc3)nnc2-c2ccccc2)CC(C)N1 (stereo unspecified) | inconclusive: 35.5 µM [inhibitor, single point] | 
COCCNC(=O)CSc1nc2cc(OC)c(OC)cc2c(=O)n1Cc1ccc(OC)cc1 | inconclusive: 3.55 µM [inhibitor, full curve, poor fit] | 
CCSCc1nnc(SCC(=O)Nc2nccs2)n1CC | inconclusive: 22.4 µM [inhibitor, single point] | 
COc1ccc(CNC(=O)C(OC(=O)c2ccco2)c2ccc(OC)cc2)cc1 (stereo unspecified) | inconclusive: 1.3 µM [inhibitor, single point] | 
COc1ccc(NC2CCCN(C(=O)c3ccc(C)nc3)C2)cc1 (stereo unspecified) | inactive | 
COc1ccc(NC(=O)CCS(=O)(=O)c2ccc3c(c2)CCCN3C(C)=O)cc1Cl | inactive | 
Cc1[nH]c(C)c(S(=O)(=O)NCc2ccc(N(C)C)cc2)c1C(=O)N1CCCC1 | inconclusive: 6.31 µM [inhibitor, single point] | 
O=C(O)c1cccc(-n2cccc2/C=C2/NC(=O)N(c3cccc(Cl)c3)C2=O)c1 | inactive | 
O=C(Nc1nc2ccccc2s1)c1cnccn1 | active: 6.51 µM | 
COc1ccc(N2CC(C(=O)N3CCCC(C)C3)CC2=O)cc1 (stereo unspecified) | inconclusive: 14.1 µM [activator, single point] | 
CCOc1ccc(C(=O)Nc2cnn(Cc3ccc(Cl)c(Cl)c3)c2)cc1 | inconclusive: 29.1 µM [inhibitor, single point] | 
CSc1ccc(/C=N/NC(=O)CNc2cccc3ccccc23)cc1 | inconclusive: 11.2 µM [inhibitor, partial curve, poor fit] | 
N#Cc1ccsc1NC(=O)c1cccc([N+](=O)[O-])c1 | inactive | 
CCOC(=O)[C@@H]1CCN(Cc2ccccc2)C[C@H]1c1ccccc1 | inconclusive: 7.94 µM [inhibitor, partial curve, poor fit] | 
CC1CC2(CCCC2)N(C(=O)c2ccccc2)Cc2ccccc21 (stereo unspecified) | inconclusive: 29.1 µM [inhibitor, single point] | 
CCOc1ccc(Cn2c3ccc(OC)cc3c3nc4ccccc4nc32)cc1OC | inconclusive: 1.12 µM [inhibitor, full curve, poor fit] | 
CC(C)CNC(=O)c1ccccc1NC(=O)c1ccccc1N(C)S(=O)(=O)c1ccccc1 | inconclusive: 1.58 µM [activator, partial curve] | 

Part of the list above in a different format.
CCSCc1nnc(SCC(=O)Nc2nccs2)n1CC
  Potency: inconclusive: 22.4 µM [inhibitor, single point]
COc1ccc(CNC(=O)C(OC(=O)c2ccco2)c2ccc(OC)cc2)cc1 (stereo unspecified)
  Potency: inconclusive: 1.3 µM [inhibitor, single point]
COc1ccc(NC2CCCN(C(=O)c3ccc(C)nc3)C2)cc1 (stereo unspecified)
  Potency: inactive
COc1ccc(NC(=O)CCS(=O)(=O)c2ccc3c(c2)CCCN3C(C)=O)cc1Cl
  Potency: inactive

2 entries from above, as comma-separated lines.
SMILES,Potency,"activity change, negative = inhibition"
N#Cc1ccsc1NC(=O)c1cccc([N+](=O)[O-])c1,inactive,
CCOC(=O)[C@@H]1CCN(Cc2ccccc2)C[C@H]1c1ccccc1,"inconclusive: 7.94 µM [inhibitor, partial curve, poor fit]",

(cont.)

SMILES | Potency | activity change, negative = inhibition
O=c1cc(-c2ccncc2)oc2ccccc12 | inconclusive: 1.41 µM [inhibitor, partial curve, poor fit] | 
COC(=O)c1cc(C(=O)Nc2nnc(CC(C)(C)C)s2)cc([N+](=O)[O-])c1 | inconclusive: 3.55 µM [activator, single point] | 
CN(C(=O)COC(=O)C12CC3CC(CC(C3)C1)C2)c1c(N)n(Cc2ccccc2)c(=O)[nH]c1=O | inconclusive: 0.447 µM [inhibitor, full curve, poor fit] | 
C=CCc1cc(Cl)ccc1OCCOCCNCCOC | inconclusive: 29.1 µM [inhibitor, single point] | 
COc1ccc(S(=O)(=O)N(C)CC(=O)N2CCN(Cc3ccccc3)CC2)cc1C | inconclusive: 18.3 µM [inhibitor, single point] | 
O=C(Nc1sc2c(c1C(=O)O)CCCC2)c1ccc(Cl)cc1 | active: 6.31 µM | 
COc1ccc(S(=O)(=O)N2CCCC2C(=O)Nc2ccc(C)cc2)cc1 (stereo unspecified) | inactive | 
O=C(c1ccc([N+](=O)[O-])cc1)N1CCc2ccccc2C1 | inactive | 
O=C(NCc1nc2ncc(Br)cc2[nH]1)c1ccccc1 | inconclusive: 4.61 µM [inhibitor, single point] | 
Cn1c(=O)n(CCN2CCOCC2)c(=O)c2c1nc1n2CCN1c1ccccc1 | inactive | 
O=c1[nH]c(=O)c2cc3ccccc3nc2[nH]1 | inconclusive: 31.6 µM [activator, single point] | 
CC(C)(C)CC(=O)NC(=S)NCCc1ccccc1 | inactive | 
CCOC(=O)c1cnc(SCc2nc(N)nc(Nc3ccc(F)cc3)n2)nc1N | inconclusive: 20.6 µM [inhibitor, single point] | 
Nc1cccc2c(=O)[nH][nH]c(=O)c12 | inconclusive: 0.562 µM [inhibitor, full curve, poor fit] | 
COc1ccccc1OCc1nc(C#N)c(NCCCn2ccnc2)o1 | inconclusive: 1 µM [inhibitor, full curve, poor fit] | 
Cc1ccc(C(C)C)c(OCCSc2nc3ccccc3n2CC(O)CO)c1 (stereo unspecified) | inactive | 
CC(=O)c1ccc(OC(C)C)c(CN2CCCCC2)c1 | inconclusive: 1.16 µM [inhibitor, partial curve, poor fit] | 
COc1ccc(CCn2c3c(c(=O)[nH]c2=O)C(NC(=O)c2ccc(C(C)(C)C)cc2)(C(F)(F)F)C(=O)N3)cc1OC (stereo unspecified) | inconclusive: 6.31 µM [inhibitor, single point] | 
CC(C)c1nc(-c2ccccc2)c(-c2ccccc2)[nH]1 | inconclusive: 6.31 µM [activator, single point] | 
Cc1sc2ncnc(SCC(=O)NNC(=O)COc3cccc4ccccc34)c2c1C | inconclusive: 20.6 µM [inhibitor, partial curve] | 
O=C1CN(c2nc(-c3cccnc3)nc3scc(-c4ccccc4)c23)CCN1 | inconclusive: 6.31 µM [inhibitor, partial curve, poor fit] | 
CC(C)CCNC(=O)COc1ccc(N(C)S(=O)(=O)c2ccc(F)cc2)cc1 | inconclusive: 22.4 µM [inhibitor, single point] | 

SMILES | Potency | activity change, negative = inhibition
Cc1cc(C)c2cc(CN(Cc3nnnn3C3CCCCC3)CC3CCCO3)c(=O)[nH]c2c1 (stereo unspecified) | inconclusive: 7.3 µM [inhibitor, partial curve, poor fit] | 
O=C(O)c1ccccc1C(=O)NNc1cccc(Cl)n1 |  | inconclusive: 16.4% [activator] [at 46.1 µM]
CCOC(=O)c1sc2nc(CC(=O)OC)nc(NCCN3CCOCC3)c2c1C | inconclusive: 20 µM [activator, single point] | 
CCn1c(NC(=O)c2ccccc2)nc2ccccc21 | inconclusive: 7.94 µM [inhibitor, single point] | 
COc1ccc(Cn2c(CO)cnc2SCC(=O)Nc2cc(C)on2)cc1 | inconclusive: 35.5 µM [inhibitor, single point] | 
COc1ccc(C(CNC(=O)c2cccc(S(=O)(=O)Nc3ccccc3OC)c2)N2CCOCC2)cc1 (stereo unspecified) | inconclusive: 10 µM [inhibitor, single point] | 
Cc1nnc(NC(=O)CSc2nnc(-c3ccc(S(=O)(=O)N4CCCC4)cc3)n2C)s1 | inconclusive: 0.206 µM [activator, single point] | 
Cc1cc(C)c(NC(=O)CSc2nc(=O)n(CCN3CCOCC3)c3c2CCCC3)c(C)c1 | inconclusive: 1.26 µM [inhibitor, partial curve, poor fit] | 
COCCCN(C(=O)CCOc1ccc(C)cc1)c1c(N)n(Cc2ccccc2)c(=O)[nH]c1=O | inactive | 
C=Cn1ccnc1P(=S)(c1ccn(C)c1)c1nccn1C=C | inconclusive: 0.891 µM [activator, full curve] | 
CCc1ccc(C(=O)c2cn(Cc3ccc(F)cc3)c3cc(OC)c(OC)cc3c2=O)cc1 | inconclusive: 3.98 µM [inhibitor, full curve] | 
COc1ccc(N2CCN(Cc3nnc(-c4cccc(Br)c4)o3)CC2)cc1 | inactive | 
CN(C)CCCN(C(=O)c1ccc(S(=O)(=O)N2CCCCCC2)cc1)c1nc2ccc(Br)cc2s1 | inconclusive: 28.2 µM [inhibitor, single point] | 
CN(C)CCNc1oc(-c2ccc(COc3ccc(Cl)cc3)o2)nc1C#N | inconclusive: 8.91 µM [inhibitor, partial curve] | 
COc1ccc2oc(-c3ccncc3)cc(=O)c2c1 | inconclusive: 35.5 µM [inhibitor, single point] | 
COc1ccc(N2CCN(C(=O)CCc3c[nH]c4ccccc34)CC2)cc1 | inactive | 
COc1ccccc1C(=O)NCCn1cc(SCC(=O)NCC2CCCO2)c2ccccc21 (stereo unspecified) | inactive | 
COc1ccc(NC(=O)CS(=O)c2ccccc2Cl)cc1 (stereo unspecified) | inconclusive: 12.6 µM [activator, partial curve] | 
CCN(CC)Cc1ccccc1Sc1ccccc1 | inconclusive: 12.6 µM [inhibitor, partial curve, poor fit] | 
COc1cc(CCN2C(=O)N[C@@H](c3cccc(C(F)(F)F)c3)C(C(C)=O)=C2C)cc(OC)c1OC | inactive | 
FC(F)(F)c1ccccc1NC(=S)N1CCCC1 | inactive | 
COc1ccc(CCNC(=O)CCn2c(=O)c3ccccc3n(Cc3ccccc3)c2=O)cc1OC | inactive | 
